Measured values taken from patent US4500707A, “Nucleosides useful in the preparation of polynucleotides” (University Patents, Inc., priority 1982, dated 1985).

Columns and labels:
Assay type in all cases: physicochemical
[1] = Lewis acid hydrolysis rates of triarylmethyl groups attached to the 5'-hydroxyl of deoxynucleosides (Table VII); conditions: tlc, exposure to HCl vapors
[2] = Protic acid hydrolysis rates of triarylmethyl groups attached to the 5'-hydroxyl of deoxynucleosides (Table VIII); conditions: tlc, exposure to HCl vapors
Procedure: The 5'-triarylmethyldeoxynucleosides were treated with protic and Lewis acids using carefully controlled conditions. The results of these studies are also recorded in Tables VII and VIII. […] The rates are more variable with protic acids.
^1 Reaction conditions were 2% toluenesulfonic acid in
chloroform:methanol (7:3). Aliquots were removed from the reaction
solution, quenched with ammonium acetate and analyzed visually after tlc
and exposure to HCl vapors. Time points were taken at 15, 30, 45, 60, 90,

[3] = Color of color coded nucleosides/phosphines in protic or Lewis acids (Tables X, XII)
[4] = Color of trityl cations of triarylmethyl alcohols, tlc plates exposed to hydrochloric acid vapor (Table V); conditions: triarylmethyl alcohol, tlc, hydrochloric acid vapor
[5] = 5'-O-triarylmethylnucleoside-3'-N,N-dimethylaminomethoxyphosphine, Lewis acid or protic acid (Table XII)
[6] = 5'-triarylmethyl deoxynucleoside exposed to protic or Lewis acids (Table X, text)

SMILES	Color in Acid [1]	Color in Acid [2]	other results
COc1ccc(C(OC[C@H]2O[C@@H](n3cc(C)c(=O)[nH]c3=O)C[C@@H]2O)(c2ccccc2)c2ccc(OC)cc2)cc1 [5'-Dimethoxytritylthymidine]	Orange	Orange	–
COc1ccccc1C(OC[C@H]1O[C@@H](n2ccc(NC(=O)c3ccccc3)nc2=O)C[C@@H]1OP(OC)N(C)C)(c1ccccc1OC)c1cccc2ccccc12 (stereo partly drawn) [5'-O--di-o-anisyl-1-napthylmethyl-N--benzoyldeoxycytidine-3'-N,N--dimethylaminomethoxyphosphine]	–	–	Color [3, 5]: Blue
COc1ccc(C(OC[C@H]2O[C@@H](n3cnc4c(=O)[nH]c(NC(=O)C(C)C)nc43)C[C@@H]2OP(OC)N(C)C)(c2ccccc2)c2ccc(OC)cc2)cc1 (stereo partly drawn) [5'-O--di-p-anisylphenylmethyl-N--isobutyryldeoxyguanosine-3'-N,N--dimethylaminomethoxyphosphine]	–	–	Color [3, 5]: Orange
COc1ccc(C(OC[C@H]2O[C@@H](n3cc(C)c(=O)[nH]c3=O)C[C@@H]2OP(OC)N(C)C)(c2ccccc2)c2cccc3ccccc23)cc1 (stereo partly drawn) [5'-O--p-anisyl-1-naphthylphenylmethyldeoxythymidine-3'-N,N--dimethylaminomethoxyphosphine]	–	–	Color [3, 5]: Red
COP(O[C@H]1C[C@H](n2cnc3c(NC(=O)c4ccccc4)ncnc32)O[C@@H]1COC(c1ccccc1)(c1ccccc1)c1ccc(C)cc1)N(C)C (stereo partly drawn) [5'-O--p-tolyldiphenylmethyl-N--benzoyldeoxyadenosine-3'-N,N--dimethylaminomethoxyphosphine]	–	–	Color [3, 5]: Yellow
COc1ccc(C(OC[C@H]2O[C@@H](n3cnc4c(NC(=O)c5ccccc5)ncnc43)C[C@@H]2O)(c2ccccc2)c2ccc(OC)cc2)cc1 [5'-O-dimethoxytrityl-N-benzoyldeoxyadenosine]	Orange	Orange	–
COc1ccc(C(OC[C@H]2O[C@@H](n3ccc(NC(=O)c4ccccc4)nc3=O)C[C@@H]2O)(c2ccccc2)c2ccc(OC)cc2)cc1 [5'-O-dimethoxytrityl-N-benzoyldeoxycytidine]	Orange	Orange	–
COc1ccc(C(OC[C@H]2O[C@@H](n3cnc4c(=O)[nH]c(NC(=O)C(C)C)nc43)C[C@@H]2O)(c2ccccc2)c2ccc(OC)cc2)cc1 [5'-O-dimethoxytrityl-N-isobutyryldeoxyguanosine]	Orange	Orange	Color [3, 6]: Orange
COc1ccccc1C(OC[C@H]1O[C@@H](n2cnc3c(=O)[nH]c(NC(=O)C(C)C)nc32)C[C@@H]1O)(c1ccccc1)c1ccccc1OC [R1 = R2 = b; R3 = a, G]	Black	Black	–
COc1ccccc1C(OC[C@H]1O[C@@H](n2ccc(NC(=O)c3ccccc3)nc2=O)C[C@@H]1O)(c1ccccc1OC)c1cccc2ccccc12 [R1 = R2 = b; R3 = n, C]	Blue	Blue	Color [3, 6]: Blue
COc1ccccc1C(OC[C@H]1O[C@@H](n2cc(C)c(=O)[nH]c2=O)C[C@@H]1O)(c1ccccc1OC)c1cccc2ccccc12 [R1 = R2 = b; R3 = n, T]	Blue	Blue	–
Cc1ccc(C(OC[C@H]2O[C@@H](n3cnc4c(NC(=O)c5ccccc5)ncnc43)C[C@@H]2O)(c2ccccc2)c2ccccc2)cc1 [R1 = h; R2 = R3 = a, A]	Yellow	Yellow	Color [3, 6]: Yellow
COc1ccc(C(OC[C@H]2O[C@@H](n3cc(C)c(=O)[nH]c3=O)C[C@@H]2O)(c2ccccc2)c2cccc3ccccc23)cc1 (stereo partly drawn) [R1 = n; R2 = c; R3 = a, T]	Green	Green	Color [3, 6]: Red
Cc1cn([C@H]2C[C@H](O)[C@@H](COC(c3ccccc3)(c3ccc(F)cc3)c3cccc4ccccc34)O2)c(=O)[nH]c1=O (stereo partly drawn) [R1 = n; R2 = e; R3 = a, T]	Red	Red	–
OC(c1ccccc1)(c1ccccc1Cl)c1cccc2ccccc12 (stereo not drawn) [R1 = n; R2 = j; R3 = a]	–	–	Color [4]: Green
OC(c1ccccc1)(c1ccc(Br)cc1)c1cccc2ccccc12 (stereo not drawn) [R1 = n; R2 = l; R3 = a]	–	–	Color [4]: Green
OC(c1ccccc1)(c1ccccc1)c1ccc(-c2ccccc2)cc1 [R1 = p; R2 = R3 = a]	–	–	Color [4]: Yellow
O=[N+]([O-])c1ccc(C(O)(c2ccccc2)c2ccc(-c3ccccc3)cc2)cc1 (stereo not drawn) [R1 = p; R2 = a; R3 = i]	–	–	Color [4]: Yellow
OC(c1ccccc1)(c1ccc(-c2ccccc2)cc1)c1ccccc1Cl (stereo not drawn) [R1 = p; R2 = a; R3 = j]	–	–	Color [4]: Colorless
